Library screening results

Measurements from “University of Dundee, Small-Polar-MMV Screening Library” (2021), ChEMBL document CHEMBL3988442.

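Viability assay of Plasmodium falciparum sporozoites; the read-out is not stated. The concentration is filed as 10 mM, unlikely as a test dose, so the dose is not known. Direction is inferred from retests: higher values go with lower viability. Strong results were mostly tested again. About 34,000 compounds were tested under these conditions; 0.84% (about 280) showed 50% or more at least once.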

Values are the deposited “Percent Effect”, in %.
The record does not define 0% and 100%; most values in the screen are far below 50% and negative numbers occur (in some assays of this library far below -100).
The compounds are a random part of those screened.
Two or more numbers in one place are separate tests of the same structure; such repeats can differ widely.

SMILES: CN1CC(=O)N(c2ccsc2)CC12CCN(S(C)(=O)=O)C2.O=C(O)C(F)(F)F (centres unmarked)
percent effect: -3.833

SMILES: Cn1ccnc1CN1CC[C@@H](NS(C)(=O)=O)[C@@H]1Cc1cccnc1
percent effect: -2.286

SMILES: N#Cc1cccc(NC(=O)C2CCCN2c2nccs2)c1 (centres unmarked)
percent effect: 9.541

SMILES: NC(=O)CN1CCCCC1c1ccc(-n2ccnc2)nc1 (centres unmarked)
percent effect: -8.12

SMILES: C=Cc1cccc(CN2CCCn3nc(CNS(C)(=O)=O)cc3C2)c1
percent effect: 6.505

SMILES: CC1(CCC(=O)N2CCC(n3cc(C4(O)CCCC4)nn3)CC2)CC1
percent effect: -21.87 & -32.97

SMILES: Cc1nc(CN2CCCN(Cc3nccn3C(C)C)CC2)no1
percent effect: 7.033

SMILES: Clc1snnc1CN1CCOC(CNc2cccnn2)C1 (centres unmarked)
percent effect: 2.453

SMILES: CCN1CCCC(c2c(-c3ccccc3)ncn2CCCO)C1 (centres unmarked)
percent effect: -11.32

SMILES: O=C(c1ccoc1)N1CCC2(CC1)C(=O)Nc1ccccc12
percent effect: -0.2307

SMILES: CCc1nccn1C1CCCN(C(=O)c2csc(COC)n2)C1 (centres unmarked)
percent effect: -1.422

SMILES: CC(Cn1ccnc1)NS(=O)(=O)c1ccc(F)c(Cl)c1 (centres unmarked)
percent effect: -12.34

SMILES: CC(C)N1CCCC1c1cc(CO)[nH]n1.O=CO (centres unmarked)
percent effect: 1.491

SMILES: CCc1nncn1CCNC(=O)Nc1ccc(OC)c(C)c1
percent effect: 6.785

SMILES: O=C(CCCc1cn[nH]c1)N1CCOCC(O)C1 (centres unmarked)
percent effect: 10.74

SMILES: Cc1cc(N2CCC(C(=O)NC3CC3)CC2)nc(-c2ccncc2)n1
percent effect: -1.891

SMILES: COCc1nn(C(C)C)c2c1CCN(Cc1cccs1)C2.O=C(O)C(F)(F)F
percent effect: 3.461

SMILES: Cn1cnnc1C1CCCN(C(=O)NCc2ccc3c(c2)OCO3)C1 (centres unmarked)
percent effect: -11.1

SMILES: COC(=O)c1ccc(C2CC(=O)Oc3cc(C)[nH]c(=O)c32)cc1 (centres unmarked)
percent effect: -14.91

SMILES: CCn1cc(NC(=O)NCc2ccc(CO)c(F)c2)cn1
percent effect: 12.83

SMILES: Cc1cccc(CNC(CN2CCN(C)CC2)c2ccccc2)c1 (centres unmarked)
percent effect: -5.536

SMILES: Cc1cccc(CN2CCc3nnc(CN4CCCC4=O)n3CC2)n1.O=C(O)C(F)(F)F
percent effect: 5.285

SMILES: O=C(Cn1cccn1)N1CCC(c2nnc(-c3ccsc3)o2)CC1
percent effect: -7.186

SMILES: [H][C@@]12CCCCN(C)[C@]1([H])[C@@H](c1ccccc1)CCN2C(=O)c1cccnc1
percent effect: 3.337

SMILES: Cc1noc(C)c1CNC(=O)N1CCC(Cc2cnn(C)c2)C1 (centres unmarked)
percent effect: 7.64

SMILES: CCc1nc(C)c(C(=O)N(C)Cc2cnn(-c3cccc(OC)c3)c2)s1
percent effect: -19.02 & -9.624

SMILES: O=C(O)C(F)(F)F.[H][C@@]12CN(Cc3csc(C)n3)C[C@]1([H])CN(C(=O)c1cccn1C)C2
percent effect: 16.9

SMILES: Cc1nc(CN2CCCC(NCc3ccc4c(c3)CCO4)C2)no1 (centres unmarked)
percent effect: 7.027

SMILES: O=C(CCCc1ccccc1)N1CCC(Nc2cccnn2)CC1
percent effect: 16.75

SMILES: CC(C)CN1CCC2(CC1)CN(C(=O)C(C)C)C2.O=C(O)C(F)(F)F
percent effect: -1.369

SMILES: c1ccc(-c2nnc(CN3CCCC(Cn4cncn4)C3)o2)cc1 (centres unmarked)
percent effect: -1.4

SMILES: CCn1nc(C)c(C(C)Nc2cc(C3CCNCC3)nc(C)n2)c1C (centres unmarked)
percent effect: 1.791

SMILES: CS(=O)(=O)NCC1CCCN(C(=O)c2cc3ccccc3o2)C1 (centres unmarked)
percent effect: -6.756

SMILES: O=C(O)CC(O)(CC(=O)O)C(=O)O.[H][C@@]12CC[C@@](O)(c3ccc(C)cn3)[C@]1([H])CN(Cc1cc(C)c(O)c(C)c1)C2
percent effect: -24.29

SMILES: Cn1cc(CN2CCC(F)(F)C3(CCN(c4cnccn4)C3)C2)cn1.O=C(O)C(F)(F)F.O=C(O)C(F)(F)F (centres unmarked)
percent effect: -20.52

SMILES: COC(=O)C(c1cc(F)ccc1F)N(C)C(=O)c1ccccn1 (centres unmarked)
percent effect: 5.348

SMILES: Cn1ncc2c1C(COCC1CC1)CN(c1ncc(F)cn1)C2 (centres unmarked)
percent effect: 3.678

SMILES: Cc1cc2c(=O)n3c(nc2s1)CCN(C(=O)c1ccnn1C)CC3
percent effect: -6.471

SMILES: [H][C@@]12CCN(C(=O)CC3Cc4ccccc4C3)C[C@]1([H])OCCNC2=O
percent effect: -6.899

SMILES: Cn1cccc1C(=O)N1CCc2ncnc(N3CCCC3)c2CC1
percent effect: -9.573

SMILES: CCOc1ccc(CCCC(=O)N2CCC(c3nnn[nH]3)CC2)cc1C
percent effect: -8.15

Repeated from the top, 4 entries:

* CN1CC(=O)N(c2ccsc2)CC12CCN(S(C)(=O)=O)C2.O=C(O)C(F)(F)F (centres unmarked) | -3.833%
* Cn1ccnc1CN1CC[C@@H](NS(C)(=O)=O)[C@@H]1Cc1cccnc1 | -2.286%
* N#Cc1cccc(NC(=O)C2CCCN2c2nccs2)c1 (centres unmarked) | 9.541%
* NC(=O)CN1CCCCC1c1ccc(-n2ccnc2)nc1 (centres unmarked) | -8.12%